The match of structure and compound is tentative.
Biological target: HSP-90 (Homo sapiens, UniProt P07900)
Experiment: HSP-90 SPA (scintillation proximity assay) competition binding assay, displacement of tritiated propyl-Geldanamycin
Conditions: SPA competition vs 200 nM 3H-pGA, 30 nM HSP-90; Examples 137 to 214, 217-218

O=C(OCc1ccccc1)[C@H]1CCCN1C(=O)c1ccc(O)cc1O
Ki: 270 nM

From patent US20090215742A1, “AMIDE […]” (PFIZER, INC., priority 2005, published 2009)
